Experiment [1] concerns the target biotinylated human α4β7 extracellular domain protein (human) (UniProt P13612). Kind of experiment: yeast-displayed clones, FACS.
Experiment [2] has the same target. Kind of experiment: yeast-displayed scFv, flow cytometry with human α4β7 antigen. Background: In flow cytometry, cells or beads pass a laser one at a time.
Experiment [3] has the same target. The experiment can be described thus: flow cytometry of yeast-displayed scFv with human α4β7 antigen; which of PE-A and APC-A shows the antigen is not said.
Experiment [4] deals with human α4β7 integrin (human) (UniProt P13612). Kind of experiment: FACS on α4β7-expressing HuT78 cells.

Amino acid sequences for entries named in this document (tags omitted). A change or cut given only in a name is not applied to a line headed by its entry.
UniProt P13612: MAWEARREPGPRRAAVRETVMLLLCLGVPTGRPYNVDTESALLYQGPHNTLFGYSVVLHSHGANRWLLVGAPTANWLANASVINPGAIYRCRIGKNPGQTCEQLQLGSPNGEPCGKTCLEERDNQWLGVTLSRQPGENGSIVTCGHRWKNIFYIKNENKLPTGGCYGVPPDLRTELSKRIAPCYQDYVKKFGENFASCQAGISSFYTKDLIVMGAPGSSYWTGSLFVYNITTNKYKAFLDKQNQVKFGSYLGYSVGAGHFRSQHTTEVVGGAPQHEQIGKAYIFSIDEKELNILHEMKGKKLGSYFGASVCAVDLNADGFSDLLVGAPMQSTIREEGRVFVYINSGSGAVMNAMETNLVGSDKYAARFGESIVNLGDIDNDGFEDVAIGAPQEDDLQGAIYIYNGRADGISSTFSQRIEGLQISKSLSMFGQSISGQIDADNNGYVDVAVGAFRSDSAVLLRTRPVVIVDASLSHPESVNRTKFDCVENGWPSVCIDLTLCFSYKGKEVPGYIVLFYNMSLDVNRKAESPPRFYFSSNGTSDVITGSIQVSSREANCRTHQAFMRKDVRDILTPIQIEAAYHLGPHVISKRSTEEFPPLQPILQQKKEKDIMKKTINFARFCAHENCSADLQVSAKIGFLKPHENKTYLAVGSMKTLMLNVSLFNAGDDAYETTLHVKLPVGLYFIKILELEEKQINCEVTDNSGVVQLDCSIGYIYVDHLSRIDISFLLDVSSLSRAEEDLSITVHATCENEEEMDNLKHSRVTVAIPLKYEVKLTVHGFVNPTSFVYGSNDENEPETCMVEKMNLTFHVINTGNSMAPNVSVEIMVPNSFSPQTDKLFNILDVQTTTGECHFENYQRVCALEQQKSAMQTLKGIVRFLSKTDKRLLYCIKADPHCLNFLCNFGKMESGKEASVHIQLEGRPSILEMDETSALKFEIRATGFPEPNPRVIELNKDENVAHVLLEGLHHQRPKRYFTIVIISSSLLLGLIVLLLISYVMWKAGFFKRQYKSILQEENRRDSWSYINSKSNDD

No constants are given. Whether binding was seen depends on the method and setting. Some results given as binding are weak or reduced against the parent protein; the word gives no strength.

The text below walks through data of patent US20260062488A1.

B1: Ab-h1.9e scFv clone (yeast displayed) (scFv, V domains shown)
VH: EVQLVQSGAEVKKPGSSVKVSCKASGFNIKNTYMHWVRQAPGQGLEWIGRIDPAGGHTEYAPKFIGRVTITADESTNTAYMELSSLRSEDTAVYYCYYVASWGQGTTVTVSS
VL: DIQMTQSPSSLSASVGDRVTITCHASQEISDNIGWLQQKPGKSFKLLIYHGTNLEDGVPSRFSGSGSGTDYTLTISSLQPEDFATYYCVQYAQFPWTFGGGTKVEIK
Consider B1, for which the binding entry in experiment [1], in experiment [2] and in experiment [3] was “binds” each time.

B2: Ab-h1.9a scFv clone (yeast displayed) (scFv, V domains shown)
VH: EVQLVQSGAEVKKPGSSVKVSCKASGFNIKNTYMHWVRQAPGQGLEWIGRIDPANKHTEYAPKFLGRVTITADESTNTAYMELSSLRSEDTAVYYCYYVASWGQGTTVTVSS
VL: DIQMTQSPSSLSASVGDRVTITCHASQEISDNIGWLQQKPGKSFKLLIYHGTNLEDGVPSRFSGSGSGTDYTLTISSLQPEDFATYYCVQYAQFPWTFGGGTKVEIK
On to B2, for which the binding entry in experiment [1], in experiment [2] and in experiment [3] was “binds” in each case.

B3: Ab-h1.9b scFv clone (yeast displayed) (scFv, V domains shown)
VH: EVQLVQSGAEVKKPGSSVKVSCKASGFNIKNTYMHWVRQAPGQGLEWIGRIDPARGHTEYAPKFSGRVTITADESTNTAYMELSSLRSEDTAVYYCYYVDQWGQGTTVTVSS
VL: DIQMTQSPSSLSASVGDRVTITCHASQDISDNIGWLQQKPGKSFKLLIYHGTNLEDGVPSRFSGSGSGTDYTLTISSLQPEDFATYYCVQYAQFPWTFGGGTKVEIK
As to B3, the binding entry in experiment [1], in experiment [2] and in experiment [3] was “binds” throughout.

B4: Ab-h1.9c (antibody, V domains shown)
VH: EVQLVQSGAEVKKPGSSVKVSCKASGFNIKNTYMHWVRQAPGQGLEWIGRIDPARGHTEYAPKFEGRVTITADESTNTAYMELSSLRSEDTAVYYCYYVASWGQGTTVTVSS
VL: DIQMTQSPSSLSASVGDRVTITCHASQDISDNIGWLQQKPGKSFKLLIYHGTNLEDGVPSRFSGSGSGTDYTLTISSLQPEDFATYYCVQYAQFPWTFGGGTKVEIKR
Regarding B4, the binding result in experiment [4] was “binds”.

B5: Ab-h1.9 scFv (parental, yeast displayed) (scFv, V domains shown)
VH: EVQLVQSGAEVKKPGSSVKVSCKASGFNIKNTYMHWVRQAPGQGLEWIGRIDPANGHTEYAPKFQGRVTITADESTNTAYMELSSLRSEDTAVYYCYYVDSWGQGTTVTVSS
VL: DIQMTQSPSSLSASVGDRVTITCHASQGISDNIGWLQQKPGKSFKLLIYHGTNLEDGVPSRFSGSGSGTDYTLTISSLQPEDFATYYCVQYAQFPWTFGGGTKVEIK
On to B5, for which the binding result in experiment [2] and in experiment [3] was “binds” each time.
